Assay [1] concerns the target dGOLPH3 (Drosophila melanogaster (endogenous in testes)) (UniProt Q9VQ93). Description: proximity ligation; Duolink PLA on formaldehyde-fixed larval testes (premeiotic and dividing spermatocytes); one primary antibody omitted as negative control.
The target of another assay is GST-dGOLPH3 (Drosophila) (UniProt Q9VQ93). Description: pull-down; GST or GST-dGOLPH3 bound to glutathione-Sepharose 4B beads, incubated with testis lysate at 4 °C for 2 h; wash buffer 25 mM Tris-HCl pH 7.4, 150 mM NaCl, 1% NP-40, 1 mM EDTA; Western blot; only the target purified. A general note: A western blot detects proteins with antibodies after separation by electrophoresis.

By UniProt entry, the sequences of proteins in these tests, tags left out.
UniProt Q9VQ93: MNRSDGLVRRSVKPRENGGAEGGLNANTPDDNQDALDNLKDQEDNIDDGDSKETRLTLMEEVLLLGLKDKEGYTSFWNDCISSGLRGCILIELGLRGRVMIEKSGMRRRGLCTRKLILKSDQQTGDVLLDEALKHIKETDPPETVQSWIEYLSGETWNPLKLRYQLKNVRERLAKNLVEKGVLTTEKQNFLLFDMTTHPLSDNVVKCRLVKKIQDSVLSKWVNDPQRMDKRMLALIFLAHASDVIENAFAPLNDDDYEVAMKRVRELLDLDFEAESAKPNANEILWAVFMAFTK
UniProt O18332: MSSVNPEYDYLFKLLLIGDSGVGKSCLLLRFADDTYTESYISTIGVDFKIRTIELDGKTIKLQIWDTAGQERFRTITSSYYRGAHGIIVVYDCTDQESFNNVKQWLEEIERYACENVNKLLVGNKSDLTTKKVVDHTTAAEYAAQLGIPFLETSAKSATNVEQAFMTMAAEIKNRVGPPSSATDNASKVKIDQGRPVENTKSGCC

Assay [2] deals with dGOLPH3 (Drosophila melanogaster (endogenous in testes)) (UniProt Q9VQ93). The experiment in a line: co-IP; extract of 400 adult testes expressing dAtx2-HA, rabbit anti-GOLPH3 antibody (pre-immune serum as control) and Protein A-Agarose; blotted for dGOLPH3, dFmr1 and HA.

This passage reports binding results from article PMC8468827.

No constants are given. Whether binding was seen depends on the method and setting. Binding seen in cells or lysates may run through a third protein. Some results given as binding are weak or reduced against the parent protein; the word gives no strength. For some of these results: Where a sequence is shown, tags or fusion partners need not be part of it.

Rab1 (from UniProt O18332 1-205): the binding entry in assay [1] is “binds”.

B1: SH3PX1 (protein, UniProt Q9NCC3 1-565)
chain: MTSYVRAMYDFTGEPGSSELSIATGDVLSVTRSDVGEGWWEGKNARGQIGLFPAAYVEVMSAAEAQKLSASGATSVPQVPDPFASPPLPRYDQTADDDGSNWDDEDDWSDDNDTYSEIGPGGQKSAGQSARAGGLSHSTSDYDNKHLPIAPNDDTQSLASVAGGTGAAGTVKKGMFAKSSDSYILGLSSTKEKIPECEMAYITQVEDSIYQWTQNHSPYSVVVASPKKESKFKGMKTFIAYQLTPSFNNISVSRRYKHFDWLHERLVDKFCLIPVPPLPDKQISGRYEEQFVEHRRVQLQEFVDWVCRHPVISKCEVWYHFLTCRDEKIWKSGKRKAERDPYMGVNYCLAISPPDKNLLHSKVDAQVELGTQFIHSMDVAVRNLNNISNDMAKRSMSQSKKEFQRIGDGLSDLAKALAIDERRAPTRNAVPLSESVGRIGGIFIGIGQAFGDQPKHDWIPLSDRLHIYRGVLNCFPDIFSTHKGAIQKRKDCEKLAGEGRMNNPQLHDVNRRTDVVSYTVLAELTHFKSERDTHLKHTLKNFIAEQIKFYQGVVARLQEASRQIE
Consider B1, for which the binding result in the assay with GST-dGOLPH3 (Drosophila) is reported as “binds”.

B2: Shibire (protein, UniProt P27619 1-877)
chain: MDSLITIVNKLQDAFTSLGVHMQLDLPQIAVVGGQSAGKSSVLENFVGKDFLPRGSGIVTRRPLILQLINGVTEYGEFLHIKGKKFSSFDEIRKEIEDETDRVTGSNKGISNIPINLRVYSPHVLNLTLIDLPGLTKVAIGDQPVDIEQQIKQMIFQFIRKETCLILAVTPANTDLANSDALKLAKEVDPQGVRTIGVITKLDLMDEGTDARDILENKLLPLRRGYIGVVNRSQKDIEGRKDIHQALAAERKFFLSHPSYRHMADRLGTPYLQRVLNQQLTNHIRDTLPGLRDKLQKQMLTLEKEVEEFKHFQPGDASIKTKAMLQMIQQLQSDFERTIEGSGSALVNTNELSGGAKINRIFHERLRFEIVKMACDEKELRREISFAIRNIHGIRVGLFTPDMAFEAIVKRQIALLKEPVIKCVDLVVQELSVVVRMCTAKMSRYPRLREETERIITTHVRQREHSCKEQILLLIDFELAYMNTNHEDFIGFANAQNKSENANKTGTRQLGNQVIRKGHMVIQNLGIMKGGSRPYWFVLTSESISWYKDEDEKEKKFMLPLDGLKLRDIEQGFMSMSRRVTFALFSPDGRNVYKDYKQLELSCETVEDVESWKASFLRAGVYPEKQETQENGDESASEESSSDPQLERQVETIRNLVDSYMKIVTKTTRDMVPKAIMMLIINNAKDFINGELLAHLYASGDQAQMMEESAESATRREEMLRMYRACKDALQIIGDVSMATVSSPLPPPVKNDWLPSGLDNPRLSPPSPGGVRGKPGPPAQSSLGGRNPPLPPSTGRPAPAIPNRPGGGAPPLPGGRPGGSLPPPMLPSRVSGAVGGAIVQQSGANRYVPESMRGQVNQAVGQAAINELSNAFSSRFK
B2: in the assay with GST-dGOLPH3 (Drosophila), the binding result was “binds”.

B3: αCOP (protein, UniProt Q9W0B8 1-1234)
chain: MLTNFESKSARVKGLSFHPKRPWILVSLHSGVIQLWDYRMHTLLEKFDEHDGPVRGVAFHQQMPLFVSGGDDYKIKVWNYKQRRCIFTLLAHLDYVRTVAFHHEYPWILSASDDQTIRIWNWQSRNCICVLTGHNHYVMCAQFHPTEDQIVSASLDQTVRVWDISGLRKKNVAPGPGGLDDHLKGHPGATDLFGQADAVVKHVLEGHDRGVNWASFHPTLPLIVSGADDRLVKLWRMNEYKAWEVDTCRGHYNNVSSVLFHPRQDLILSNGEDRSIRVWDMTKRQCLFTFRRDNERFWILTAHPTLNLFAAGHDGGMVVFKLERERPAYAVHGNILYYVKERFLRKLDFTTTKDTVVMQLRPGKSPVYSMSYNPALNAVLICTRTNNLENSTYDLCQIPKDTESQSESDSKRSSGITAIWVARNRFAVLDRNQQLVIKNFKNEVTKKLPTFCEEIFYAGTGMLLIRDPEFVTLYEVQRLVSVGSIKLAKCRYVVWSPDMSLVALLCKHSVTICDRRLQYLCTVQENCRVKSGAWDESGVFIYTTSNHIKYAITNGDHGIIRTLDLPIYLTRVKGNQVFCLDRECRTRVLHIDPTEYKFKLALIQRKYDEVLHMVRNARLVGQSIIAYLQQKGYPEVALHFVKDEKTRFGLALECGNIEIALEAAKALDDKDCWDRLGQSALLQGNHQVVEMCYQRTKNFDKLSFLYLITGNLEKLKKMNKIAEIRKDVSAQYQGALLLGDVKERVNILKNCGQLSLAYLTAATHGFDELTESLGESITSQGNSLPEVNPNAQLLQPPVPIQQLETNWPLLSVSKGFFEGAMVTRAGSSATARQALNINADAALLDEHNGGGDGWGADADLGLDEDGDDEMHDALSNDGDGGAGGEEGAGWDVGDDDLVVPEELASKIKASALDSNYYAAPNKGLSPAQQWANNSPLVLDHVKAGSFETAFRLLHDQLGVVNFQPFKTLFLQNYACSRTSYTANPNLQSLSGYPLRNYSETNIKLQRPAVGIKLNDLVARLQAGYQLTTSGKFSEAVEKFHSILISIPLLVVDTKLDAAEAQQLLRICAEYIVGLKMETVRKGMPKSTLEEQKRLCEMAAYFTHCKLQPVHQILTLRTALNMFFKLKNYKTAASFARRLLELAPRPDVAQQVRKILQACEVNPVDEHQLQYEEFNPFTICGISWKPLYRGKPEVTCPFCSSSFDPQFKGNLCTVCEVSQIGKDSIGLRISNLQFR
Regarding B3, the binding result with GST-dGOLPH3 (Drosophila) was “binds”.

B4: δCOP-HA (protein, UniProt Q9W555 1-532)
chain: MVLIAAAVCTKNGKVILSRQFVEMTKARIEGLLAAFPKLMTAGKQHTYVETDSVRYVYQPMEKLYMLLITTKASNILEDLETLRLFSKVIPEYSHSLDEKEIVENAFNLIFAFDEIVALGYRESVNLAQIKTFVEMDSHEEKVYQAVRQTQERDARQKMREKAKELQRQRMEASKRGGPSLGGIGSRSGGFSADGIGSSGVSSSSGASSANTGITSIDVDTKSKAAASKPASRNALKLGGKSKDVDSFVDQLKNEGEKIANLAPAAPAGGSSAAASASAAAKAAIASDIHKESVHLKIEDKLVVRLGRDGGVQQFENSGLLTLRITDEAYGRILLKLSPNHTQGLQLQTHPNVDKELFKSRTTIGLKNLGKPFPLNTDVGVLKWRFVSQDESAVPLTINCWPSDNGEGGCDVNIEYELEAQQLELQDVAIVIPLPMNVQPSVAEYDGTYNYDSRKHVLQWHIPIIDAANKSGSMEFSCSASIPGDFFPLQVSFVSKTPYAGVVAQDVVQVDSEAAVKYSSESILFVEKYEIV
Regarding B4, the binding entry in the assay with GST-dGOLPH3 (Drosophila) is given as “binds”.

B5: dAtx2-HA (protein, UniProt Q8SWR8 1-1084)
chain: MNNNSKRKTRPTGGGASGGISRYNSNDNSLRPTNNKAGAGGGNGGAAVRPSAQGVYNNTFFMHSATALVGSVVEVRLRSGNIYEGVFRTFSGNFDIALELPACIKSKNLPEEGKVPKHIIFPADTVVTIVAKDFDSQYATAGAFQTDGAISDKCNGARPDEKELEPWDSGANGDIDIELDSAANGWDPNEMFRKNENTFGVTSTFDDSLASYTVPLDKGDSLEFKEAEAKAEKLAAEIENNPTCRDRLDLENGDEEALFAAVERPSTEQDQRGDRGDRERNDRDREREERDRDRDRDRGNKPRGAGDFQLRETMSSDRYITKQTRSITGPQLSHVGMSSQGSGRDRDTRGDGSMMMQSGGGSGQGGSTQSTAALMLAGGLKGVGPAPSANASADSSSKYSGGSMVKRKTVPQGGKVMRNNVPTGGSNVSVSQGGNGNSVGQNKGGYQPSMGMPSQYSYQGNSQIMHGSSQYRNQSHMGGANKLNGDSNANTNKPLPQRQMRQYQGSQSNSSLNYGGEPQSLGKPVHGSHGGHPGQNSNSPPLQTAGPQQQQQQQQQQQQQQQQQQPPQQQQHQNIQPQGQNTQPARQVRTRDNQMQELRQFGQDFQLAPSNTSPPQQQQQQQQQQQQHQVQQQQQRALQQSASPPQQQQQQQQQQQHVVLHQVPQTHLHQAALSQPHYVPQQQPQQAPLPQQQHVPHHMQQKAQQQQLVETQHQHVQKQHQSQPQVQQPPPQLLQDPSQQPLPIYHTMPPPQTSPVVVTSPVLLEQPPPQPMPVVQQQQTQQLATPKPEVSPAPPSSNTTTPTGIASTPTAGVIASAGSEKTTPAAPTPTSNSATVPTGTAATAGGATGTTPVVKKHVLNPSAKPFTPRGPSTPNPSRPHTPQTPVPMTNIYTTTGGHVPPAANQPIYVMQPQHPFPPQTHPQAGQPPRLRRSNYPPMAASQMHVSASAATGQPLITAGPIPQFIQYGHAPHQQQFQSHTYAPMQMRVYPDQPQQLQFMTQTPQSTTPSPGQPHQQFHPPPQPSPAGGGPQPAFTPPTQAATYQLMCVHPQSLLANHYFPPPTPQHPQQNQQQYQIVMQQHQPQ
For the molecule B5, the binding result (in assay [2]; with GST-dGOLPH3 (Drosophila)) was “binds” each time.
